In the supplement of paper PMC10849652:
The list shows a part of the results.

Sequences of proteins named here, by UniProt entry; tags and fusion partners are left off. A change or cut given only in a name is not applied to a line headed by its entry.
UniProt Q9NUW8, whole entry, looked up: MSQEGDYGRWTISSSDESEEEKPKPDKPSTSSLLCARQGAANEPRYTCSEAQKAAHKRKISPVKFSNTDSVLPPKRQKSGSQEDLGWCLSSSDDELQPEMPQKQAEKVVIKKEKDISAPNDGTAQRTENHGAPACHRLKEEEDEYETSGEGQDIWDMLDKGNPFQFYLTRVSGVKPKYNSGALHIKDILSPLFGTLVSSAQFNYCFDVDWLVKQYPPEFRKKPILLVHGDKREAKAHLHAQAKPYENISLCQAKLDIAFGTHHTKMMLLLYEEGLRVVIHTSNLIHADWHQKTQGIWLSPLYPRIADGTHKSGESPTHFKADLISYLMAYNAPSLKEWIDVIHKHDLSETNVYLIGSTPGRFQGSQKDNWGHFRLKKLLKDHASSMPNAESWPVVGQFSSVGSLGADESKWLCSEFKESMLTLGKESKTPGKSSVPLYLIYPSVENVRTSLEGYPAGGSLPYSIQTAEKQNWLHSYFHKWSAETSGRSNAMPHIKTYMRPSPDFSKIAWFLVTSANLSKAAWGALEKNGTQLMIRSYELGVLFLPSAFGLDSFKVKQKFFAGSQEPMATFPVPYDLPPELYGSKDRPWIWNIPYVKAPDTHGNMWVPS
UniProt O95455: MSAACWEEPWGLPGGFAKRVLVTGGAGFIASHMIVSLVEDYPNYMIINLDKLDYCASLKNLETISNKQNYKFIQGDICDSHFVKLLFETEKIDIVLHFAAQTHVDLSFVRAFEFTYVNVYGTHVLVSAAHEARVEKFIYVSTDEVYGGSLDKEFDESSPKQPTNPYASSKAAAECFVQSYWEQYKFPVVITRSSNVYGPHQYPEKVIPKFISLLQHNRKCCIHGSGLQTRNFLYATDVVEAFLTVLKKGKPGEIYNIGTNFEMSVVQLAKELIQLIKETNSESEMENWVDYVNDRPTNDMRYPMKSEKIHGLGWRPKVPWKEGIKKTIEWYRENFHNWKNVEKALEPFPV
UniProt Q7L2K0: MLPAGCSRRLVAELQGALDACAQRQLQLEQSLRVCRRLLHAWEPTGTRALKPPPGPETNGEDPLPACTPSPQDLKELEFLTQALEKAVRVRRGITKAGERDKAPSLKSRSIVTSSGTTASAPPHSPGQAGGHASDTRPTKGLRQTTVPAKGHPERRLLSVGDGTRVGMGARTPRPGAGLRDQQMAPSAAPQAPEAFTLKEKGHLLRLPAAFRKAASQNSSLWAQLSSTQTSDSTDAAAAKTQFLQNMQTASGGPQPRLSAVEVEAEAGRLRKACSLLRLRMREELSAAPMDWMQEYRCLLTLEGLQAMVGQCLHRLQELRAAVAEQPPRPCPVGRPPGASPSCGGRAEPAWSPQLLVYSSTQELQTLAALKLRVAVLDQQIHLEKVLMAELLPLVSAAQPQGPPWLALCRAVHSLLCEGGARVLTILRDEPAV
UniProt Q9BQ70: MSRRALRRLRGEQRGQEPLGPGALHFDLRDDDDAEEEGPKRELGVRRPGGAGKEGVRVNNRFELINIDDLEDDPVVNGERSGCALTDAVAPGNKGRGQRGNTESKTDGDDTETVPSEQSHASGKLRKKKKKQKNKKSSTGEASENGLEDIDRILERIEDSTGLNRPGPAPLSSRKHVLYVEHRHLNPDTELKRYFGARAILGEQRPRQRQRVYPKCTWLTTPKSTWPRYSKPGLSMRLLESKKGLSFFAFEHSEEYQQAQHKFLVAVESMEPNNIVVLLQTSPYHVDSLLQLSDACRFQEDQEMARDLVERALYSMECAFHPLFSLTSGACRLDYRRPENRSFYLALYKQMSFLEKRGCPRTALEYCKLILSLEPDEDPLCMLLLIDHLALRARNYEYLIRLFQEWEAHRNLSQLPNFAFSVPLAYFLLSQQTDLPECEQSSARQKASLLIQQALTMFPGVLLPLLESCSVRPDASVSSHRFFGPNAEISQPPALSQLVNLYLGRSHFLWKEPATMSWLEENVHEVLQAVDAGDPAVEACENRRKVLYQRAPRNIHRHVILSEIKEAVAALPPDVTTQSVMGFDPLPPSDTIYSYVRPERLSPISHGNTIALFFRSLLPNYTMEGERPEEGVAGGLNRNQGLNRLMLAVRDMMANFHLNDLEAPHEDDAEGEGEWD
UniProt Q9H7E2: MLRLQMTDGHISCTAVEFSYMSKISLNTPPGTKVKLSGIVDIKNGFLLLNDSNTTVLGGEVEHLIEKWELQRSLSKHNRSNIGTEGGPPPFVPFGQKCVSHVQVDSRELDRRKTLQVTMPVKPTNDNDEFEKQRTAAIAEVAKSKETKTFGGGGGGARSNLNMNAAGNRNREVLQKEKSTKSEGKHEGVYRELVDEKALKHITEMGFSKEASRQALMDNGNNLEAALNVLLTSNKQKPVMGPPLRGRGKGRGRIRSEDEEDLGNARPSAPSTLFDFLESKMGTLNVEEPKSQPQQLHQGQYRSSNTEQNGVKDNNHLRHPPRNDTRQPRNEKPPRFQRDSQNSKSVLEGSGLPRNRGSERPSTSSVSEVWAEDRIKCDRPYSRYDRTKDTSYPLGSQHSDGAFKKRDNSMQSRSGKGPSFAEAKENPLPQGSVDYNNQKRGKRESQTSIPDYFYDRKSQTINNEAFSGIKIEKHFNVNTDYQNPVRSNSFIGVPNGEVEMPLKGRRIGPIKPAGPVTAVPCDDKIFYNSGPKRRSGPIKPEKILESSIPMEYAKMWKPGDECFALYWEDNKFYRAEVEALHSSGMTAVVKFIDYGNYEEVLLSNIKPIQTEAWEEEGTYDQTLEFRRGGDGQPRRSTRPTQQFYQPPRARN
UniProt Q8NHU6: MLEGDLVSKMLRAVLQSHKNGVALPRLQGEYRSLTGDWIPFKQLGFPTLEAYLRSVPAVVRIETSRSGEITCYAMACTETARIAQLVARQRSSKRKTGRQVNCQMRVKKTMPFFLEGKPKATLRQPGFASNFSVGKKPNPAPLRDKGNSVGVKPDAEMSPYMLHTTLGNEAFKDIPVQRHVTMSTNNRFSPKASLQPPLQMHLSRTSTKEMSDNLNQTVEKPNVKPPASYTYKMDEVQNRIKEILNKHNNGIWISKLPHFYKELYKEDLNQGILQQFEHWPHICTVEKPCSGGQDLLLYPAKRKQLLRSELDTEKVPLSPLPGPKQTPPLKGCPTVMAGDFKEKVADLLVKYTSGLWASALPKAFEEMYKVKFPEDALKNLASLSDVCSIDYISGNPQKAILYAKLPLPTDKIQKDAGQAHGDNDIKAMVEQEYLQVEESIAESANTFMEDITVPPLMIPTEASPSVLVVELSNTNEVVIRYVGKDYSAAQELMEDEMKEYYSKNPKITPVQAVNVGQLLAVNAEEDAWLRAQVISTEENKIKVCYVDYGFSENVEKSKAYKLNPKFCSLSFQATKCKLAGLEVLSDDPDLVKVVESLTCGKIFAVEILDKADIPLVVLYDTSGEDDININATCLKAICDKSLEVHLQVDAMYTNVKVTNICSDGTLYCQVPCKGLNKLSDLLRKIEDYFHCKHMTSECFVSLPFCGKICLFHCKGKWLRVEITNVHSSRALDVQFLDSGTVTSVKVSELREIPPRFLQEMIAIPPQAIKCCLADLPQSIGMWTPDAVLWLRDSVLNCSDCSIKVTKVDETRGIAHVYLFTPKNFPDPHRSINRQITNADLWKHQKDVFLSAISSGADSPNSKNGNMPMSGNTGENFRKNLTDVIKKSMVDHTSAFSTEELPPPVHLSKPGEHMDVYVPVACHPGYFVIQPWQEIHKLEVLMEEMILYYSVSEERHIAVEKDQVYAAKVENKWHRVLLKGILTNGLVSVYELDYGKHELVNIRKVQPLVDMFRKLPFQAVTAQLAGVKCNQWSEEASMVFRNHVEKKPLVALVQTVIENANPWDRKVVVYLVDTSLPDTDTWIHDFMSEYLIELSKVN
UniProt Q96EI5: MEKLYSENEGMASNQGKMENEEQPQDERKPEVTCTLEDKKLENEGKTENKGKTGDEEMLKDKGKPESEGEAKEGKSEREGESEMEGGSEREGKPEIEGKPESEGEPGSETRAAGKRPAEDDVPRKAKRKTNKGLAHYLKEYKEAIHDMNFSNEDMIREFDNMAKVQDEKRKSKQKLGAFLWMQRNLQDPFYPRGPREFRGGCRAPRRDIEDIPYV
UniProt P15884: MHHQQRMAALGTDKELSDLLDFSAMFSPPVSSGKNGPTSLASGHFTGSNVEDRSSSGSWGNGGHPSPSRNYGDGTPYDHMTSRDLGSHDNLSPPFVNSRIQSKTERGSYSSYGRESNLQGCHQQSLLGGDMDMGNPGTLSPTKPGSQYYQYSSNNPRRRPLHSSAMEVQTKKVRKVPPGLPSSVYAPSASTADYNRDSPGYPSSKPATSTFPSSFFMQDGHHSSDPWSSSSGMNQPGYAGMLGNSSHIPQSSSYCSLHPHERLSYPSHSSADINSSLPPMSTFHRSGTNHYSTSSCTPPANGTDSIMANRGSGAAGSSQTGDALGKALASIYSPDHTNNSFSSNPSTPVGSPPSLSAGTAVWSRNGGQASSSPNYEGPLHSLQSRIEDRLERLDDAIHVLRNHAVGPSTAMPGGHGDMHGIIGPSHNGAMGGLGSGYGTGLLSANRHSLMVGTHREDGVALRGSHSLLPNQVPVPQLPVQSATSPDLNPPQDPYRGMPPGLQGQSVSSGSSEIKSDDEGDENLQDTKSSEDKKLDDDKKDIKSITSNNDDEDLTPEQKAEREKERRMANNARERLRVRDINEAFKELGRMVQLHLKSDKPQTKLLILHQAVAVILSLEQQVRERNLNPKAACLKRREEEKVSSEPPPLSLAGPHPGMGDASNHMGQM
UniProt Q9P0N9: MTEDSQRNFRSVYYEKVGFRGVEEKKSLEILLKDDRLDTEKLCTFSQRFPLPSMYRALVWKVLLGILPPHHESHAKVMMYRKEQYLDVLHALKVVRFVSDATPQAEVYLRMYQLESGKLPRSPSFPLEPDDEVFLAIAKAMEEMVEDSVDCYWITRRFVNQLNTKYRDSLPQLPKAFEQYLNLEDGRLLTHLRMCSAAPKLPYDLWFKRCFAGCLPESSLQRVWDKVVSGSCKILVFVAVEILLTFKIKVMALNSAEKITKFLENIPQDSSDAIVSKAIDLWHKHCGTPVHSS
UniProt Q8IYN2: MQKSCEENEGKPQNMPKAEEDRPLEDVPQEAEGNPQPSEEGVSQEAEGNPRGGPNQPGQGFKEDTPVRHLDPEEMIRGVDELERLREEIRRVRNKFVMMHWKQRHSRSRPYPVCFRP
UniProt Q8N9U0: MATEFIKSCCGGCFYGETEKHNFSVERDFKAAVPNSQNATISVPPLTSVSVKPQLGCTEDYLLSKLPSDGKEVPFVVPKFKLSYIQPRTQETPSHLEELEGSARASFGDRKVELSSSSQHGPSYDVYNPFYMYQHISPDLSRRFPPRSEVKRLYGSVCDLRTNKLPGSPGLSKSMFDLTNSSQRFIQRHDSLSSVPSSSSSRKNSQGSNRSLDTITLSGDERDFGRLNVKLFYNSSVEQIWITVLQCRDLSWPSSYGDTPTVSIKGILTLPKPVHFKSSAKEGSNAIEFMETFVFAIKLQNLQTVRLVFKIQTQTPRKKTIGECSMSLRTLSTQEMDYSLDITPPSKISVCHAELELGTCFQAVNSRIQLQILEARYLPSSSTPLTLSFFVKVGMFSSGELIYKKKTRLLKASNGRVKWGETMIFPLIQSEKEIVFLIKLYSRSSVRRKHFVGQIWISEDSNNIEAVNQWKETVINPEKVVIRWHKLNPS
UniProt Q5TEJ8: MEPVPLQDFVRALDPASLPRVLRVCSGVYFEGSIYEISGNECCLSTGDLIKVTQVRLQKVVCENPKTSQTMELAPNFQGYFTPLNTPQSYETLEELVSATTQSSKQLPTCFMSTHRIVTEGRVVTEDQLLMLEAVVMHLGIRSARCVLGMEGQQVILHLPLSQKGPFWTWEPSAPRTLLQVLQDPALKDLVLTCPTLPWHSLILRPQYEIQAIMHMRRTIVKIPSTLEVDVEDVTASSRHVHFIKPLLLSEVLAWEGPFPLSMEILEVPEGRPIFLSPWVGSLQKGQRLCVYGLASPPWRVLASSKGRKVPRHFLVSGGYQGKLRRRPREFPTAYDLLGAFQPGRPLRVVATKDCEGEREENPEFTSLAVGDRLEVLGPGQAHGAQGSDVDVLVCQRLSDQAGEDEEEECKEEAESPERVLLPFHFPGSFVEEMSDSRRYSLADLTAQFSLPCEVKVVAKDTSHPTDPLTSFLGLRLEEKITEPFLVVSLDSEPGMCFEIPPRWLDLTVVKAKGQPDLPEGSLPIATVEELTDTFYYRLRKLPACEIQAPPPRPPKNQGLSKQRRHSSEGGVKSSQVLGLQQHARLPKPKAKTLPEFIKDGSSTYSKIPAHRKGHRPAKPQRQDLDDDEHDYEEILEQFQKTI
UniProt P20226, whole entry, looked up: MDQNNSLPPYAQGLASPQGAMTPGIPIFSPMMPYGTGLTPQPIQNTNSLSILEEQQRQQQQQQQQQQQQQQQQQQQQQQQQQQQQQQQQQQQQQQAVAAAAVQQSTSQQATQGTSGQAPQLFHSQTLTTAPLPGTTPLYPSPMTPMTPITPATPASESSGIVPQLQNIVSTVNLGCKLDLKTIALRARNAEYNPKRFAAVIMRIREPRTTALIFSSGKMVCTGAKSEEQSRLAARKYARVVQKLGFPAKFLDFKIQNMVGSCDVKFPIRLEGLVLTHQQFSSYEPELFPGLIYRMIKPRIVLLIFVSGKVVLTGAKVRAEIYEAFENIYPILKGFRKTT

Legend:
Assay in all cases: log2 fold change, soluble protein after heating vs DMSO (PISA); higher = thermal stabilisation; K562 cells, 10 uM, 30 min; active = over 0.2 and 3.5 SD of the protein, either way, in both replicates (recomputed)
[1] = compound: C[C@H](C1=CC=C(C=C1)C(=O)NC2=C3C=CNC3=NC=C2)N
How it was run: (§1)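 Values are thermal stability changes relative to control samples and are taken from duplicates. They are stated as log2 fold changes. Before quantification by TMTpro 16plex LC-MS/MS with equalised channel sums, K562 cells at 2×10^6 cells/mL were treated with 10 μM compound for 30 min, heated in aliquots for 3 min across 48°C-58°C, pooled, extracted in PBS with 0.5% NP-40 at 4°C, and centrifuged at 21,000xg for 90 min to give the soluble supernatant.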

[2] = compound: Cn1cc(-c2ccc3c(c2)CCN3C(=O)Cc2cccc(C(F)(F)F)c2)c2c(N)ncnc21
How it was run: as §1

crizotinib = compound: C[C@@H](Oc1cc(-c2cnn(C3CCNCC3)c2)cnc1N)c1c(Cl)ccc(F)c1Cl [crizotinib]
How it was run: as §1

[3] = compound: C[C@@H]1COCCN1C2=NC(=NC(=C2)C3(CC3)S(=O)(=O)C)C4=C5C=CNC5=CC=C4
How it was run: as §1

gandotinib = compound: Cc1cc(Nc2cc(CN3CCOCC3)c3nc(C)c(Cc4ccc(Cl)cc4F)n3n2)n[nH]1 [gandotinib]
How it was run: as §1

[4] = compound: Cc1cc(SCc2sc(-c3ccc(C(F)(F)F)cc3)nc2C)ccc1OCC(=O)O
How it was run: as §1

doramapimod = compound: Cc1ccc(-n2nc(C(C)(C)C)cc2NC(=O)Nc2ccc(OCCN3CCOCC3)c3ccccc23)cc1 [doramapimod]
How it was run: as §1

ispinesib = compound: Cc1ccc(C(=O)N(CCCN)[C@@H](c2nc3cc(Cl)ccc3c(=O)n2Cc2ccccc2)C(C)C)cc1 [ispinesib]
How it was run: as §1

bafetinib = compound: Cc1ccc(NC(=O)c2ccc(CN3CC[C@H](N(C)C)C3)c(C(F)(F)F)c2)cc1Nc1nccc(-c2cncnc2)n1 [bafetinib]
How it was run: as §1

[5] = compound: Cc1cccc(CC(=O)N2CCc3c2ccc(-c2cn(C)c4ncnc(N)c24)c3F)n1
How it was run: as §1

nilotinib = compound: Cc1cn(-c2cc(NC(=O)c3ccc(C)c(Nc4nccc(-c5cccnc5)n4)c3)cc(C(F)(F)F)c2)cn1 [nilotinib]
How it was run: as §1

[6] = compound: Cc1nc(Nc2n[nH]c3c2CN(C(=O)N[C@H](CN(C)C)c2ccccc2)C3(C)C)c2sccc2n1
How it was run: as §1

dasatinib = compound: Cc1nc(Nc2ncc(C(=O)Nc3c(C)cccc3Cl)s2)cc(N2CCN(CCO)CC2)n1 [dasatinib]
How it was run: as §1

[7] = compound: Cc1ncc(-c2ccnc(Nc3ccc(S(C)(=O)=O)cc3)n2)n1C(C)C
How it was run: as §1

[8] = compound: Cn1cc(-c2ccc3nnc(C(F)(F)c4ccc5ncccc5c4)n3n2)cn1
How it was run: as §1

tipifarnib = compound: Cn1cncc1[C@@](N)(c1ccc(Cl)cc1)c1ccc2c(c1)c(-c1cccc(Cl)c1)cc(=O)n2C [tipifarnib]
How it was run: as §1

mubritinib = compound: FC(F)(F)c1ccc(/C=C/c2nc(COc3ccc(CCCCn4ccnn4)cc3)co2)cc1 [mubritinib]
How it was run: as §1

[9] = compound: CS(=O)(=O)c1ccc(-c2cnc(N)c(C(=O)Nc3ccccc3)n2)cc1
How it was run: as §1

duvelisib = compound: C[C@H](Nc1ncnc2nc[nH]c12)c1cc2cccc(Cl)c2c(=O)n1-c1ccccc1 [duvelisib]
How it was run: as §1

tozasertib = compound: Cc1cc(Nc2cc(N3CCN(C)CC3)nc(Sc3ccc(NC(=O)C4CC4)cc3)n2)n[nH]1 [tozasertib]
How it was run: as §1

Measured: log2 fold change

TDP1 (UniProt Q9NUW8)
inactive: [1] 0.145 | [2] -0.1

TEX30 (UniProt Q5JUR7)
inactive: crizotinib -0.206 | [3] 0.073 | [1] 0.044 | gandotinib -0.292 | [4] 0.067 | doramapimod 0.059 | ispinesib -0.295 | bafetinib -0.01 | [5] -0.053 | nilotinib -0.147 | [6] -0.095 | dasatinib -0.2 | [7] -0.016 | [2] 0.084 | [8] -0.004 | tipifarnib -0.18 | mubritinib 0.033

TGDS (UniProt O95455)
inactive: [9] -0.008 | [1] -0.053 | duvelisib 0.099 | gandotinib -0.155 | tozasertib -0.26 | [4] 0.079 | [5] -0.166 | nilotinib 0.052 | [6] -0.034 | dasatinib -0.046 | [7] -0.021 | [2] 0.206 | mubritinib 0.071

TFAP4 (UniProt Q01664)
inactive: crizotinib -0.056 | [1] 0.329 | gandotinib -0.006 | tozasertib 0.006 | doramapimod -0.095 | ispinesib -0.111 | bafetinib 0.108 | [5] 0.001 | nilotinib -0.01 | [6] -0.103 | [7] -0.182 | [2] 0.098 | [8] -0.034 | tipifarnib 0.001

TDRD15 (UniProt B5MCY1)
inactive: [9] 0.061 | [1] 0.318 | duvelisib 0.209 | gandotinib -0.008 | tozasertib -0.188 | [4] -0.322 | ispinesib -0.11 | [5] -0.25 | dasatinib 0.213 | [2] -0.09 | [8] 0.125 | mubritinib 0.252

THAP12 (UniProt O43422)
inactive: crizotinib 0.034 | [1] 0.345 | gandotinib -0.602 | doramapimod 0.172 | ispinesib -0.003 | [5] 0.215 | nilotinib -0.131 | [6] -0.038 | [7] 0.125 | [2] -0.19 | [8] -0.12

TEDC2 (UniProt Q7L2K0)
inactive: duvelisib -0.03 | tozasertib -0.03 | [4] -0.141 | dasatinib -0.122

TCF25 (UniProt Q9BQ70)
inactive: crizotinib -0.111 | [3] -0.095 | [1] 0.164 | gandotinib -0.159 | tozasertib 0.201 | doramapimod -0.008 | ispinesib 0.025 | [5] 0.038 | [2] -0.132 | [8] -0.104 | tipifarnib 0.019 | mubritinib -0.041

TCP11L1 (UniProt Q9NUJ3)
inactive: duvelisib 0.096 | [4] -0.202 | nilotinib -0.22 | [6] 0.045 | dasatinib -0.273 | [7] -0.055 | tipifarnib -0.062 | mubritinib 0.105

TET2 (UniProt Q6N021)
inactive: crizotinib 0.062 | tozasertib -0.05 | doramapimod -0.03 | nilotinib 0.071 | [6] -0.103 | [7] -0.027 | mubritinib -0.028

TDRD3 isoform 3 (UniProt Q9H7E2)
inactive: [3] 0.006 | bafetinib 0.023 | tipifarnib 0.222 | mubritinib -0.041

TCAF2 (UniProt A6NFQ2)
inactive: crizotinib -0.041 | [3] -0.251 | [1] 0.288 | doramapimod 0.284 | ispinesib -0.425 | nilotinib -0.355 | [6] -0.205 | [7] 0.076 | [2] -0.318 | [8] -0.068

THAP9 (UniProt Q9H5L6)
inactive: crizotinib -0.004 | [1] -0.105 | [4] -0.245 | doramapimod 0.041 | ispinesib -0.21 | bafetinib 0.191 | nilotinib 0.03 | [6] -0.009 | dasatinib -0.082 | [7] -0.04 | [2] 0.119 | [8] 0.072 | mubritinib 0.17

TLCD3A (UniProt Q8TBR7)
inactive: [9] -0.004 | duvelisib -0.019 | gandotinib -0.125 | tozasertib -0.014 | [4] 0.185 | [5] -0.038 | dasatinib 0.184 | tipifarnib 0.086

TLE3 (UniProt Q04726)
inactive: [1] -0.042 | bafetinib -0.165 | [2] 0.094

TFIP11 (UniProt Q9UBB9)
inactive: [1] 0.126 | [2] -0.21

TBC1D17 (UniProt Q9HA65)
inactive: [9] 0.096 | [1] 0.067 | duvelisib -0.004 | gandotinib -0.108 | tozasertib -0.061 | [4] 0.077 | ispinesib 0.037 | bafetinib -0.231 | [5] 0.001 | nilotinib -0.119 | [6] 0.045 | dasatinib -0.065 | [7] 0.094 | [2] -0.048 | [8] -0.183 | mubritinib 0.02

TEX10 (UniProt Q9NXF1)
inactive: [9] -0.135 | gandotinib 0.051 | bafetinib 0.009 | [5] 0.004

TDRD7 (UniProt Q8NHU6)
inactive: crizotinib 0.105 | [3] 0.749 | [1] 0.001 | duvelisib 0.23 | gandotinib -0.054 | [4] -0.096 | doramapimod -0.057 | ispinesib 0.034 | [5] 0.081 | dasatinib 0.16 | [2] 0.019 | [8] -0.008 | mubritinib 0.34

TBCK (UniProt Q8TEA7)
inactive: crizotinib -0.008 | duvelisib -0.083 | gandotinib 0.143 | tozasertib -0.05 | [4] 0.088 | doramapimod -0.078 | [5] -0.032 | nilotinib 0.005 | [6] 0.181 | dasatinib -0.097 | [7] -0.126 | tipifarnib 0.141

TCEAL4 isoform 2 (UniProt Q96EI5)
inactive: crizotinib -0.082 | [3] 0.011 | duvelisib 0.057 | gandotinib 0 | tozasertib -0.045 | [4] -0.004 | doramapimod 0.035 | ispinesib 0.145 | [5] -0.044 | dasatinib -0.222 | [8] 0.066 | tipifarnib -0.017

TBC1D9 (UniProt Q6ZT07)
inactive: duvelisib -0.082 | [4] 0.603 | bafetinib -0.271 | dasatinib -0.235

TGM2 (UniProt A2A299)
inactive: [1] 0.168 | duvelisib 0.15 | tozasertib -0.088 | [4] 0.001 | ispinesib -0.11 | dasatinib 0.13 | [2] -0.359 | [8] 0.059 | tipifarnib 0.137 | mubritinib -0.233

TCF20 (UniProt Q9UGU0)
inactive: [3] -0.172 | [1] 0.411 | gandotinib 0.311 | ispinesib -0.471 | bafetinib -0.143 | [5] 0.072 | [2] 0 | [8] -0.133

TBX1 isoform 3 (UniProt O43435)
inactive: crizotinib 0.341 | doramapimod -0.012 | nilotinib -0.208 | [6] -0.18 | [7] -0.118 | tipifarnib -0.128

TESMIN (UniProt Q9Y4I5)
inactive: nilotinib -0.165 | [6] 0.015 | [7] 0.081

TCF4 isoform 3 (UniProt P15884)
inactive: [1] 0.198 | duvelisib -0.012 | gandotinib -0.016 | tozasertib 0.086 | [4] -0.044 | [5] -0.121 | dasatinib -0.008 | [2] -0.023 | tipifarnib -0.029

THTPA (UniProt Q9BU02)
inactive: [1] -0.004 | duvelisib 0.09 | tozasertib 0.048 | [4] -0.105 | ispinesib -0.01 | bafetinib -0.03 | dasatinib -0.076 | [2] 0.018 | [8] -0.021 | tipifarnib -0.023 | mubritinib 0.104

TBC1D7 (UniProt Q9P0N9)
inactive: [9] 0.016 | [3] -0.182 | bafetinib 0.048 | tipifarnib 0.065

TCEAL8 (UniProt Q8IYN2)
inactive: crizotinib 0.075 | gandotinib -0.222 | doramapimod -0.104 | [5] 0.043 | nilotinib 0.012 | [6] 0.026 | [7] -0.086 | mubritinib -0.08

TIGAR (UniProt Q9NQ88)
inactive: gandotinib 0.202 | bafetinib -0.083 | [5] -0.086

TC2N (UniProt Q8N9U0)
inactive: [4] -0.072 | ispinesib -0.071 | nilotinib 0.052 | dasatinib 0.068 | [7] -0.024 | [8] -0.153 | mubritinib 0.176
active: [6] -0.71

TEPSIN (UniProt Q96N21)
inactive: crizotinib -0.223 | doramapimod 0.241

THEMIS2 (UniProt Q5TEJ8)
inactive: crizotinib -0.091 | [3] -0.147 | duvelisib 0.046 | gandotinib -0.063 | tozasertib -0.116 | [4] 0.091 | doramapimod 0.031 | ispinesib -0.029 | [5] -0.124 | nilotinib 0.144 | [6] 0.21 | dasatinib 0.032 | [7] -0.138 | [8] 0.047 | tipifarnib -0.014

TBC1D2 (UniProt Q9BYX2)
inactive: [3] 0.064 | gandotinib -0.04 | [5] 0.213 | mubritinib -0.085

TBP (UniProt P20226)
inactive: crizotinib 0.048 | [3] -0.021 | [1] 0.303 | [4] -0.098 | doramapimod -0.023 | ispinesib -0.006 | bafetinib -0.039 | nilotinib 0.008 | [6] 0.093 | dasatinib 0.104 | [7] 0.079 | [2] -0.112 | [8] 0.036 | tipifarnib 0.013 | mubritinib 0.004

TCF3 isoform 2 (UniProt P15923)
inactive: crizotinib 0.156 | [1] -0.009 | gandotinib -0.211 | tozasertib 0.007 | doramapimod 0.192 | ispinesib 0.025 | [5] 0.067 | [2] 0.103 | [8] 0.095

TBC1D25 (UniProt Q3MII6)
inactive: [1] -0.115 | bafetinib 0.188 | [2] -0.448

TENM4 (UniProt Q6N022)
inactive: crizotinib 0.105 | [3] 0.044 | [1] 0.101 | duvelisib 0.07 | gandotinib 0.21 | [4] -0.024 | doramapimod 0 | [5] 0.024 | dasatinib 0.027 | [2] 0.049 | tipifarnib 0.005

TCIRG1 (UniProt Q13488)
inactive: crizotinib -0.157 | [3] -0.545 | [1] 0.483 | duvelisib -0.208 | gandotinib -0.032 | tozasertib 0.171 | [4] 0.178 | doramapimod 0.348 | ispinesib -0.522 | bafetinib 0.03 | [5] -0.026 | nilotinib 0.138 | [6] 0.012 | dasatinib -0.036 | [7] -0.074 | [2] -0.263 | [8] 0.066
